Results as given in US9149472B2, “Controlled release compositions for treatment of cognitive, emotional and mental ailments and disorders” (priority 2004, dated 2015).

Tested on: symptoms of cognitive ailments
Conditions: Patient 3; one 10 mg daily in the morning

CC(C)(O)c1ccccc1CC[C@@H](SCC1(CC(=O)[O-])CC1)c1cccc(/C=C/c2ccc3ccc(Cl)cc3n2)c1.[Na+] [montelukast sodium]
focus and concentration at once daily dose: mild improvement in focus and concentration
